Measured values reported in patent publication US20080293632.

Sequences of proteins named here, by UniProt entry; tags and fusion partners are left off. Residues count along the entry.
UniProt O15266, 1-194: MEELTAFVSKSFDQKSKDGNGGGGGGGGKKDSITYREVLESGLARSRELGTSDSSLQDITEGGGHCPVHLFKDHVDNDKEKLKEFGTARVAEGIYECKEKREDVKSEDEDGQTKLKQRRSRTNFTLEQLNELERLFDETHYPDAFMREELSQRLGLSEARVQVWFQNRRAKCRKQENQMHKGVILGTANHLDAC

Target: SHOX-GST (GST-SHOX-STM, SHOX aa 1-194) (Homo sapiens) (UniProt O15266)
Experiment: EMSA
Details: two-nucleotide substitution almost completely abolished binding, purified recombinant protein, protein details: N-terminal GST (pGEX, E. coli), label: 32P

| Sequence | binding result (variant of BNP-1220 Wt) | binding result (variant of BNP-600 Wt) |
| --- | --- | --- |
| GGGTCACCAGGCCACCTGCTGATGATAGTTAGATCATGGGTGGTCAGATG (double strand) [BNP-1220b] | binds more weakly | – |
| GGGTTCCTGGTCATACCCAGGCTTTTGATGAATGGCCACTGGGGAATCAGCAT (double strand) [BNP-600a] | – | binds more weakly |
| TAATCACCAGGCCACCTGCTACTGATAACTAGATCATGGGTGGTCAGATG (double strand) [BNP-1220a] | binds more weakly | – |

The comparison behind a weaker result is the experiment's own reference, which may not be listed here.
